Laboratory results taken from publication PMC8960621, “Solution speciation and human serum protein binding of indium(III) complexes of 8-hydroxyquinoline, deferiprone and maltol” (Journal of Biological Inorganic Chemistry, 2022).

Assay: Fluorescence lifetime (TCSPC) of the complexes alone
Format: physicochemical
Conditions: pH 7.40; for α1 / α2: amplitude, complex alone; for τ1 / τ2: fluorescence lifetime of the complex alone

Q: With `[Ga+3].[O-]c1cccc2cccnc12.[O-]c1cccc2cccnc12.[O-]c1cccc2cccnc12` [GaQ3, Tris(8-Quinolinolato)gallium(III), reference compound] as the molecule, how does the α1 read?
A: 57 ± 5%

Q: What about the α2 of the same molecule?
A: 43 ± 5%

Q: What about the τ1 of the same molecule?
A: 0.54 ± 0.04 ns

Q: And the τ2?
A: 1.23 ± 0.03 ns

Q: Which α1 does the source give for `[In+3].[O-]c1cccc2cccnc12.[O-]c1cccc2cccnc12.[O-]c1cccc2cccnc12` [InQ3, Tris(8-Quinolinolato)indium(III)] here?
A: 75 ± 4%

Q: And the α2?
A: 25 ± 4%

Q: What about the τ1 of the same molecule?
A: 0.80 ± 0.03 ns

Q: What about the τ2 of the same molecule?
A: 1.41 ± 0.07 ns
